{"source": "paper doi:10.1101/2021.04.27.441709", "target": "Cleaved N-terminal fragment of DFNA5 tagged with internal Flag (human)", "test": "co-IP", "note": "Results are given in words; binding and its absence hold for the method and conditions named. In cells and extracts the contact can be indirect. Binding can be weak; no strength is given. Where a sequence is shown, tags or fusion partners need not be part of it."}
{"binder": "CHMP4B tagged with V5 (protein, UniProt Q9H444 1-224) MSVFGKLFGAGGGKAGKGGPTPQEAIQRLRDTEEMLSKKQEFLEKKIEQELTAAKKHGTKNKRAALQALKRKKRYEKQLAQIDGTLSTIEFQREALENANTNTEVLKNMGYAAKAMKAAHDNMDIDKVDELMQDIADQQELAEEISTAISKPVGFGEEFDEDELMAELEELEQEELDKNLLEISGPETVPLPNVPSIALPSKPAKKKEEEDDDMKELENWAGSM", "values": [{"measurement": "binding", "value": "binds"}]}
